# Values quoted from earlier work, collected in patent US8609652B2, “Method of administering a methylene blue-curcumin analog for the treatment of alzheimer's disease” (DePuy Synthes Products, LLC, priority 2009, dated 2013).
# For at least one compound, name, drawing or mass did not settle the structure.
# Columns and labels:
# [1] = system: antigen-stimulated spleen cytotoxic T-lymphocyte proliferation; conditions: oral pretreatment with curcumin before MPA administration; cited from earlier work
# Pgp = conditions: freshly-plated and 72 hour-cultured hepatocytes; cited from earlier work
# [2] = system: differentiated neuroblastoma cells; conditions: cited from earlier work
# PC12 cells, βA (25-35) = conditions: cited from earlier work
compound,measurement,setting,value
"COc1cc(/C=C/C(=O)CC(=O)/C=C/c2ccc(O)c(OC)c2)ccc1O [curcumin, (E,E)-1,7-bis(4-hydroxy-3-methoxyphenyl)-1,6-heptadiene-3,5,-dione]",increase in immunosuppression of antigen-stimulated spleen cytotoxic T-lymphocyte proliferation,[1],six-fold increase
same,Rhodamine-123 (R-123) efflux,Pgp,inhibited by curcumin in a dose-dependent manner
same,curcumin concentration that blocks the in vitro toxicity of Aβ1-42 oligomers,[2],0.1 to 1.0 µM
same,anti-BA (25-35) ED50,"PC12 cells, βA (25-35); Kim",7.1 ± 0.3 µg/mL
same,anti-βA (25-35) ED50,"PC12 cells, βA (25-35); Park, concentration required to achieve 50% cell viability",7.0 ± 1.1 µg/mL
